# Laboratory results published in PubChem BioAssay AID445 (National Center for Advancing Translational Sciences (NCATS), 2006).
# This is one part of the list. Further columns of the screen follow, without active or inactive calls. Most of these compounds were active or inconclusive in the main read-out, so they are no random draw. Words in brackets tell the shape of the fitted curve; partial curves, single points and poor fits give uncertain potencies.
# Assay: IkB Signaling
# Settings: ABC-DLBCL IkBa-CBG/CBR dual luciferase ratio (green luciferase fused to IkBa over red control in OCI-Ly3 lymphoma cells), 4 h
# Summary of the method: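 Curves were fitted separately to fusion (green), unfused (red) and ratio luminescence, then classed by r2, magnitude and activity. Cells: OCI-Ly3, 4 h compound plus doxycycline at 37C; 10 uM MG-132 defined full response.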
# [1] = measured here: control luc red channel unless noted
compound,measurement,setting,value
O=C(Nc1cccc(Cl)c1)Nc1ccc2c(c1)OCO2,AC50,[1],"12.6 µM [falling, partial curve]"
CCN(CC)c1ccc2cc(-c3nc(-c4ccccc4F)no3)c(=O)oc2c1,AC50,[1],"0.126 µM [falling, full curve]"
Cc1cc(C)c(S(=O)(=O)Nc2ccc(-c3ccc(N4CCCCCC4)nn3)cc2)cc1C,AC50,[1],"3.98 µM [falling, full curve]"
Cc1c(NC(=O)C(C)OC(=O)CC2Sc3ccccc3NC2=O)c(=O)n(-c2ccccc2)n1C (stereo not drawn),AC50,[1],"12.6 µM [falling, partial curve]"
Cc1cccc(NC(=O)CSc2nc3c(sc4ccccc43)c(=O)n2CCCC(=O)NC2CCCC2)c1,AC50,[1],"20 µM [falling, single point]"
CCCOC(=O)CSc1nnc(-c2ccccc2Cl)o1,AC50,[1],"5.01 µM [falling, partial curve] [measured here: IkB-luc green channel]"
Cc1cc(C)c2c(=O)cc(C(=O)NCc3ccc(S(N)(=O)=O)cc3)oc2c1,AC50,[1],"3.98 µM [rising, partial curve]"
COCCCNC(=O)CSc1nc(-c2ccc(OC)c(OC)c2)[nH]c1-c1ccc(F)cc1,AC50,[1],"31.6 µM [falling, single point]"
CCc1ccc(NC(=O)CCc2nnc3n(C)c(=O)c4sccc4n23)cc1,AC50,[1],"31.6 µM [falling, single point]"
Cc1cc(C)cc(NC(=O)Cn2c(=O)n(Cc3ccco3)c(=O)c3oc4ccccc4c32)c1,AC50,[1],"39.8 µM [falling, single point]"
Cc1cccc(NC(=O)C2CCCN(S(=O)(=O)c3ccc(Br)s3)C2)c1 (stereo not drawn),AC50,[1],"12.6 µM [falling, partial curve]"
O=C(CSc1nnc(Cc2ccccc2)n1Cc1ccco1)NC12CC3CC(CC(C3)C1)C2,AC50,[1],"20 µM [falling, partial curve]"
COc1ccc(NC(=O)Cn2nnc3sc4c(c3c2=O)CCCC4)cc1,AC50,[1],"0.2 µM [falling, partial curve, poor fit]"
Cc1ccc(NC(=O)CN2C(=O)COc3ccc(S(=O)(=O)Nc4ccccc4)cc32)c(C)c1,AC50,[1],"31.6 µM [falling, partial curve]"
O=C(Nc1cccc2ccccc12)OC1C=CS(=O)(=O)C1 (stereo not drawn),AC50,measured here: IkB-luc green channel,"20 µM [falling, partial curve]"
same,AC50,measured here: control luc red channel,"12.6 µM [falling, partial curve]"
CCOc1cc(C(=O)Nc2ccc(-c3nc4ccccc4s3)cc2Cl)cc(OCC)c1OCC,AC50,[1],"0.0251 µM [falling, full curve]"
Cc1cc(NC(=O)c2ccc(N(C)S(=O)(=O)c3ccccc3)cc2)no1,AC50,[1],"12.6 µM [falling, partial curve]"
COc1ccc(C(=O)Nc2cc(S(=O)(=O)c3ccc(Cl)cc3)c(O)c(C)c2C)cc1,AC50,[1],"25.1 µM [falling, partial curve]"
COc1cccc(NS(=O)(=O)c2ccc3[nH]cc(C(=O)NCCC(C)C)c(=O)c3c2)c1,AC50,[1],"10 µM [falling, partial curve]"
COc1ccccc1NC(=O)Cn1nc(-c2ccc(C)cc2)c2c(c1=O)CCCC2,AC50,[1],"25.1 µM [falling, partial curve]"
O=C(Nc1ccc(Br)cc1)C(Cc1ccccc1)NS(=O)(=O)c1cccc2nsnc12 (stereo not drawn),AC50,[1],"3.98 µM [rising, single point]"
COc1ccccc1-c1nc(-c2ccccn2)no1,AC50,[1],"6.31 µM [falling, partial curve]"
CCc1ccc(-n2nc3cc(C)c(NC(=O)c4cc(OC)cc(OC)c4)cc3n2)cc1,AC50,[1],"0.0316 µM [rising, full curve]"
CC(C)(C)c1ccc(C(=O)NCC(c2cccs2)S(=O)(=O)c2cccs2)cc1 (stereo not drawn),AC50,[1],"25.1 µM [falling, partial curve, poor fit]"
C=CCn1c(NC(=O)c2ccccc2)c(C#N)c2nc3ccccc3nc21,AC50,[1],"25.1 µM [falling, partial curve]"
COc1cc(CN2CCc3nc(N4CCN(c5ccccn5)CC4)ncc3C2)cc(OC)c1OC,AC50,[1],"20 µM [falling, partial curve]"
Brc1ccc(-c2nc3ccccc3s2)s1,AC50,[1],"1 µM [rising, full curve, poor fit]"
O=C(Nc1ccc(Cl)cc1C(F)(F)F)c1cc(S(=O)(=O)N2CCOCC2)ccc1F,AC50,[1],"7.94 µM [falling, partial curve]"
Nc1c(N2CCN(c3ccccc3)CC2)c2ccccc2oc1=O,AC50,[1],"20 µM [falling, partial curve, poor fit]"
CC(C)(C)OC(=O)N1CCC(c2c(C(=O)NCc3ccco3)cnn2-c2ccccc2Cl)CC1,AC50,[1],"15.8 µM [falling, partial curve]"
CC(=O)c1cc(-c2ccccc2)n(CCC(=O)NC(C)c2ccccc2)c1C (stereo not drawn),AC50,[1],"7.94 µM [rising, partial curve, poor fit]"
COC(=O)c1ccccc1NS(=O)(=O)c1ccc2c(c1)CCCN2C(C)=O,AC50,[1],"0.2 µM [falling, full curve, poor fit]"
O=C(NCc1cccs1)c1ccc(CSc2nc3ccncc3n2Cc2ccccc2)cc1,AC50,[1],"12.6 µM [falling, partial curve]"
CCOc1ccc(S(=O)(=O)NCCc2csc3nc(-c4ccc(F)cc4)nn23)cc1,AC50,[1],"20 µM [rising, partial curve]"
CCOC(=O)c1ccc(NC(=O)Cn2c(=O)cc(C(F)(F)F)c3c(C)nn(C)c32)cc1,AC50,[1],"39.8 µM [falling, single point]"
Cc1[nH]c2ccccc2c1SCCNC(=O)c1ccc(Br)o1,AC50,[1],"31.6 µM [falling, single point]"
Fc1ccc(CSc2nc(NCc3ccccc3)c3ccccc3n2)cc1,AC50,[1],"25.1 µM [falling, partial curve]"
COc1ccc(-c2cc(C(=O)Nc3cccc(O)c3)on2)cc1OC,AC50,[1],"25.1 µM [falling, single point]"
Cc1cccc(CSCc2ccc(C(=O)NCCc3ccccc3)o2)c1,AC50,[1],"39.8 µM [falling, single point]"
CCCC1C(c2ccccc2)C(C#N)(C#N)C2(C#N)CC1(N)NC2=O (stereo not drawn),AC50,[1],"20 µM [falling, partial curve]"
CCc1ccc(NC(=O)N(CCCN2CCOCC2)C(C)c2cc3cccc(OC)c3o2)cc1 (stereo not drawn),AC50,[1],"25.1 µM [falling, partial curve, poor fit]"
Cc1cc(C)c2c(CC(=O)Nc3ccc(S(=O)(=O)N4CCCCC4)cc3)coc2c1,AC50,[1],"3.16 µM [falling, partial curve]"
O=C(c1cc2ccccc2oc1=O)N1CCN(c2ccc(F)cc2)CC1,AC50,[1],"20 µM [falling, partial curve]"
COc1cccc(-c2nn(C)c3sc(C(=O)NCc4ccco4)cc23)c1,AC50,[1],"10 µM [falling, partial curve]"
Nc1c(-c2nc(-c3ccccc3)no2)nnn1CC(=O)Nc1cccc(F)c1,AC50,[1],"15.8 µM [falling, partial curve]"
COc1ccc(CC(=O)Nc2ccc(S(=O)(=O)NCC3CCCO3)cc2)cc1 (stereo not drawn),AC50,[1],"20 µM [falling, partial curve]"
CC(=O)c1ccc(NC(=O)CN(C)S(=O)(=O)c2cc3c(cc2Cl)NC(=O)CO3)cc1,AC50,[1],"39.8 µM [falling, single point]"
CCCN(CCC)S(=O)(=O)c1ccc(C(=O)Nc2cccc(-c3nc4ccccc4[nH]3)c2)cc1,AC50,[1],"12.6 µM [falling, partial curve]"
N#Cc1c(-n2ncnc2-c2ccccc2C(F)(F)F)sc2c1CCCCC2,AC50,[1],"2.51 µM [rising, partial curve, poor fit]"
CCCN(CCC)C(=O)CSc1nc2n[nH]c(C)c2c(=N)n1-c1ccc(OC)cc1,AC50,[1],"25.1 µM [falling, partial curve]"
Cc1ccc(NCc2cccn2-c2nnc(N3CCC(C(=O)NCCC(C)C)CC3)s2)cc1,AC50,[1],"15.8 µM [falling, single point]"
COc1ccccc1N1CCN(c2nc3ccccc3n3cnnc23)CC1,AC50,[1],"39.8 µM [falling, single point]"
CCc1ccc(-n2nnc(-c3nsc(NC(=O)c4ccccc4Cl)n3)c2C)cc1,AC50,[1],"7.94 µM [falling, partial curve]"
Cc1ccc2c(c1)N(C(=O)N1CCC(C(=O)NCc3cccc(Br)c3)CC1)CCO2,AC50,[1],"15.8 µM [falling, partial curve]"
COc1ccc(C)cc1NC(=O)COc1cc(=O)n(C)c2ccccc12,AC50,[1],"39.8 µM [rising, single point]"
c1ccc(N2CCN(c3nc4ccccc4n4nnnc34)CC2)cc1,AC50,[1],"0.316 µM [falling, full curve]"
O=C(Nc1ccc(Br)cc1)c1ccc(F)c(S(=O)(=O)NC2CCCCCC2)c1,AC50,[1],"25.1 µM [falling, partial curve]"
O=C(COc1ccccc1)Nc1ccccc1C(=O)NCc1ccco1,AC50,[1],"15.8 µM [falling, partial curve]"
COc1ccc(Cl)cc1C(=O)N(Cc1nc(-c2cccc(C)c2)no1)C(C)C,AC50,[1],"12.6 µM [falling, partial curve]"
CCOC(=O)C1CCN(CC(=O)Nc2cc(C)c3c(=O)oc4ccccc4c3n2)CC1,AC50,[1],"25.1 µM [falling, partial curve, poor fit]"
Cc1cn2c(=O)cc(COc3cccc(NC(=O)c4ccc(C(C)(C)C)cc4)c3)nc2s1,AC50,[1],"2.51 µM [falling, full curve]"
Cc1nn(-c2ccccc2)c2nc(C3CC3)cc(C(=O)Nc3ccc(F)cc3)c12,AC50,[1],"15.8 µM [falling, partial curve]"

# Shown as tab-separated lines: part of the list above.
compound	measurement	setting	value
COc1ccc(C)cc1NC(=O)COc1cc(=O)n(C)c2ccccc12	AC50	[1]	39.8 µM [rising, single point]
c1ccc(N2CCN(c3nc4ccccc4n4nnnc34)CC2)cc1	AC50	[1]	0.316 µM [falling, full curve]

# Pulled one by one from the list above:
compound,measurement,setting,value
COc1ccccc1N1CCN(c2nc3ccccc3n3cnnc23)CC1,AC50,[1],"39.8 µM [falling, single point]"
CCc1ccc(NC(=O)N(CCCN2CCOCC2)C(C)c2cc3cccc(OC)c3o2)cc1 (stereo not drawn),AC50,[1],"25.1 µM [falling, partial curve, poor fit]"
COc1ccc(NC(=O)Cn2nnc3sc4c(c3c2=O)CCCC4)cc1,AC50,[1],"0.2 µM [falling, partial curve, poor fit]"
